Paper PMC5297127
Results are given in words; binding and its absence hold for the method and conditions named. In cells and extracts the contact can be indirect. Each block holds one molecule with its values, some of them ahead of it.

Chains of the proteins cited; added tags and fusions are not shown.
UniProt Q92905: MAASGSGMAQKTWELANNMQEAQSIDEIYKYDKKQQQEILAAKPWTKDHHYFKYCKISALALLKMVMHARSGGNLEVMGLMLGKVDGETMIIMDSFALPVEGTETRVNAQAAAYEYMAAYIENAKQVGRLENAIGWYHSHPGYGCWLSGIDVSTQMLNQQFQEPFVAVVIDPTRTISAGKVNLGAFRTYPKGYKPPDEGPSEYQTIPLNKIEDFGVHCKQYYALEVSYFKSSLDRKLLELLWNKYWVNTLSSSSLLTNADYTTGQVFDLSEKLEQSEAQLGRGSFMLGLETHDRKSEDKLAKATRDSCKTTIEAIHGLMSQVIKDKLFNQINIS
UniProt P25963: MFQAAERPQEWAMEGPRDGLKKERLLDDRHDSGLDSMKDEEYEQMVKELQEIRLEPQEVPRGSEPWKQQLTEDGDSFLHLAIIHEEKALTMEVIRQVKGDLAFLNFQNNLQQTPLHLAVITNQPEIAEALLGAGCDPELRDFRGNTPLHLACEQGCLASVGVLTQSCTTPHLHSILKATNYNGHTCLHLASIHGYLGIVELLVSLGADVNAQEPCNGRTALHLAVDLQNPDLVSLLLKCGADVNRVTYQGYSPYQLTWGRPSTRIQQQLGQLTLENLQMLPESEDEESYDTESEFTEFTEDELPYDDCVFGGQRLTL
UniProt Q04206: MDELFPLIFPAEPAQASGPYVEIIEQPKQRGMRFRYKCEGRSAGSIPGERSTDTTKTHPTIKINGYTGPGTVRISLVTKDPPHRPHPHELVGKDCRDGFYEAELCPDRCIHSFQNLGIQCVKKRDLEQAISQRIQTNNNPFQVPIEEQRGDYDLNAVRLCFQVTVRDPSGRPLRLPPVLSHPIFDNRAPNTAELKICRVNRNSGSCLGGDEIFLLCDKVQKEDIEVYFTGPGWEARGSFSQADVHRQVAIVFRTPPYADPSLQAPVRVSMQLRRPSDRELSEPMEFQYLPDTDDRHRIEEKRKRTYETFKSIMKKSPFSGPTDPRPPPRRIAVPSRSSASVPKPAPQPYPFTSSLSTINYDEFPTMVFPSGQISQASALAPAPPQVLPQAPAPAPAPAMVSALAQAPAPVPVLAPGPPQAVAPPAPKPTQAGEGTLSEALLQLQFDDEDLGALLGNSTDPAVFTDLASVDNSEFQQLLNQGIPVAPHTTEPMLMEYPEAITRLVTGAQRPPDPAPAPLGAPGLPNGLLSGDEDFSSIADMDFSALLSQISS

What was measured:
[1] = target: JAB1 (Jun activation domain binding protein-1) (human (endogenous in U937)) (UniProt Q92905); assay: co-IP; Pierce Co-IP kit; endogenous JAB1 precipitated with anti-JAB1 [2A10.8] antibody-coupled resin from 1 mg pre-cleared lysate of PMA-differentiated U937 macrophages, untreated or oxLDL-treated (4 h); western blot; eluate of Control Agarose Resin as negative control
[2] = target: JAB1 (Jun activation domain binding protein-1) (human (endogenous in U937)), Q92905; assay: as above; conditions: remark: other sources report otherwise

binding [1]: no binding
Molecule: Iκ-Bα (nuclear factor of kappa light polypeptide gene enhancer in B-cells inhibitor, alpha) (from UniProt P25963 1-317)

binding [1]: no binding
Molecule: NF-κB p65 (from UniProt Q04206 1-551)

binding [2]: no binding
B1: IkB kinase ß (IKKß), O14920 1-756 (protein)
chain: MSWSPSLTTQTCGAWEMKERLGTGGFGNVIRWHNQETGEQIAIKQCRQELSPRNRERWCLEIQIMRRLTHPNVVAARDVPEGMQNLAPNDLPLLAMEYCQGGDLRKYLNQFENCCGLREGAILTLLSDIASALRYLHENRIIHRDLKPENIVLQQGEQRLIHKIIDLGYAKELDQGSLCTSFVGTLQYLAPELLEQQKYTVTVDYWSFGTLAFECITGFRPFLPNWQPVQWHSKVRQKSEVDIVVSEDLNGTVKFSSSLPYPNNLNSVLAERLEKWLQLMLMWHPRQRGTDPTYGPNGCFKALDDILNLKLVHILNMVTGTIHTYPVTEDESLQSLKARIQQDTGIPEEDQELLQEAGLALIPDKPATQCISDGKLNEGHTLDMDLVFLFDNSKITYETQISPRPQPESVSCILQEPKRNLAFFQLRKVWGQVWHSIQTLKEDCNRLQQGQRAAMMNLLRNNSCLSKMKNSMASMSQQLKAKLDFFKTSIQIDLEKYSEQTEFGITSDKLLLAWREMEQAVELCGRENEVKLLVERMMALQTDIVDLQRSPMGRKQGGTLDDLEEQARELYRRLREKPRDQRTEGDSQEMVRLLLQAIQSFEKKVRVIYTQLSKTVVCKQKALELLPKVEEVVSLMNEDEKTVVRLQEKRQKELWNLLKIACSKVRGPVSGSPDSMNASRLSQPGQLMSQPSTASNSLPEPAKKSEELVAEAHNLCTLLENAIQDTVREQDQSFTALDWSWLQTEEEEHSCLEQAS
